{"source": "PubChem BioAssay AID743121 (NCATS, 2013)", "assay": "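Partners whose loss is lethal together with topoisomerase I blockade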 (primary screen)", "cells": "MDA-MB-231 cells, a human breast cancer line", "reagents": "single siRNA against human genes, 20 nM siRNA (0.8 pmol per well)", "timing": "120 h (drug added 48 h after transfection, read 72 h later)", "conditions": "camptothecin 20 nM (about EC30) for 72 h; vehicle 0.1% DMSO in parallel plates", "detection": "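CellTiter-Glo ATP signal, scaled to control siRNA as percent viability; sensitisation given as log2 of untreated divided by camptothecin-treated viability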", "reading the numbers": "log2 vehicle/camptothecin viability: higher = stronger sensitisation to camptothecin; viability with camptothecin: higher = more viable cells", "rule for the call": "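Each gene scored by redundant siRNA activity (RSA) over its individual siRNA ratios; a gene is called active at p < 0.001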", "note": "Shown is an unselected part of about 26,000 reagents tested. 167 of them (0.63%) count as active. 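Calls are per gene from RSA p-values that are not deposited; an individual active-marked siRNA can sensitise only weakly.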 Unmarked entries are inactive. Reagents against one gene are numbered here. Further read-outs or replicates are left out here. Reagent sequences are not shown."}
{"Target gene": "RDH8", "reagent": 1, "log2 vehicle/camptothecin viability": 0.409, "viability with camptothecin (% of control)": 4.15}
{"Target gene": "RDH8", "reagent": 2, "log2 vehicle/camptothecin viability": -0.0855, "viability with camptothecin (% of control)": 111}
{"Target gene": "RDH8", "reagent": 3, "log2 vehicle/camptothecin viability": -0.296, "viability with camptothecin (% of control)": 49}
{"Target gene": "MORN1", "reagent": 1, "log2 vehicle/camptothecin viability": -0.0216, "viability with camptothecin (% of control)": 92.5}
{"Target gene": "MORN1", "reagent": 2, "log2 vehicle/camptothecin viability": 0.000155, "viability with camptothecin (% of control)": 106}
{"Target gene": "MORN1", "reagent": 3, "log2 vehicle/camptothecin viability": 0.141, "viability with camptothecin (% of control)": 107}
{"Target gene": "MORN1", "reagent": 4, "log2 vehicle/camptothecin viability": 0.147, "viability with camptothecin (% of control)": 82}
{"Target gene": "PTPN23", "reagent": 1, "log2 vehicle/camptothecin viability": 0.646, "viability with camptothecin (% of control)": 29.6}
{"Target gene": "PTPN23", "reagent": 2, "log2 vehicle/camptothecin viability": -0.582, "viability with camptothecin (% of control)": 67.8}
{"Target gene": "PTPN23", "reagent": 3, "log2 vehicle/camptothecin viability": -0.277, "viability with camptothecin (% of control)": 63.4}
{"Target gene": "PTPN23", "reagent": 4, "log2 vehicle/camptothecin viability": 0.7, "viability with camptothecin (% of control)": 4.14}
{"Target gene": "AKAP17A", "reagent": 1, "log2 vehicle/camptothecin viability": 0.36, "viability with camptothecin (% of control)": 47.1}
{"Target gene": "AKAP17A", "reagent": 2, "log2 vehicle/camptothecin viability": 0.0245, "viability with camptothecin (% of control)": 99.8}
{"Target gene": "AKAP17A", "reagent": 3, "log2 vehicle/camptothecin viability": -0.311, "viability with camptothecin (% of control)": 97.7}
{"Target gene": "PYCARD", "reagent": 1, "log2 vehicle/camptothecin viability": -0.465, "viability with camptothecin (% of control)": 6.24}
{"Target gene": "PYCARD", "reagent": 2, "log2 vehicle/camptothecin viability": -0.343, "viability with camptothecin (% of control)": 116}
{"Target gene": "PYCARD", "reagent": 3, "log2 vehicle/camptothecin viability": -0.287, "viability with camptothecin (% of control)": 83.4}
{"Target gene": "PYCARD", "reagent": 4, "log2 vehicle/camptothecin viability": -0.636, "viability with camptothecin (% of control)": 130}
{"Target gene": "BDKRB2", "reagent": 1, "log2 vehicle/camptothecin viability": 0.356, "viability with camptothecin (% of control)": 10.6}
{"Target gene": "BDKRB2", "reagent": 2, "log2 vehicle/camptothecin viability": -0.727, "viability with camptothecin (% of control)": 44.3}
{"Target gene": "BDKRB2", "reagent": 3, "log2 vehicle/camptothecin viability": -0.0441, "viability with camptothecin (% of control)": 101}
{"Target gene": "BDKRB2", "reagent": 4, "log2 vehicle/camptothecin viability": -0.348, "viability with camptothecin (% of control)": 53}
{"Target gene": "PLIN1", "reagent": 1, "log2 vehicle/camptothecin viability": -0.051, "viability with camptothecin (% of control)": 75}
{"Target gene": "PLIN1", "reagent": 2, "log2 vehicle/camptothecin viability": -0.118, "viability with camptothecin (% of control)": 59.3}
{"Target gene": "PLIN1", "reagent": 3, "log2 vehicle/camptothecin viability": -0.172, "viability with camptothecin (% of control)": 63.9}
{"Target gene": "PLIN1", "reagent": 4, "log2 vehicle/camptothecin viability": -0.374, "viability with camptothecin (% of control)": 10.6}

Reprinted from above for reference:
{"Target gene": "PTPN23", "reagent": 4, "log2 vehicle/camptothecin viability": 0.7, "viability with camptothecin (% of control)": 4.14}
{"Target gene": "AKAP17A", "reagent": 1, "log2 vehicle/camptothecin viability": 0.36, "viability with camptothecin (% of control)": 47.1}
